Data reported in patent publication US20170107282A1 (CELL MEDICA SWITZERLAND, published 2017).
No constants are given. Whether binding was seen depends on the method and setting. Some binding calls cover weakened binding; strength is not graded here.

By UniProt entry, the sequences of proteins in these tests, tags left out. Where a name states a change or a piece, a line headed by the entry shows the natural chain unless it says otherwise. Chains listed by the source or under a name are the forms on record and can include a tag or linker.
transmembrane (tm) human TNF alpha, A1-12 variant, on CHO cells (P01375, form named): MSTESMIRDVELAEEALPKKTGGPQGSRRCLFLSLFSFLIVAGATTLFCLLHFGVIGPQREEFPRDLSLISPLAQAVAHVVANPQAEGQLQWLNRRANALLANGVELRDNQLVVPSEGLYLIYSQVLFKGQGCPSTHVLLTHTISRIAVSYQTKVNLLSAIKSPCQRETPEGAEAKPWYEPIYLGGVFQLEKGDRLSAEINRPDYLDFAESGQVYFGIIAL

Key:
[1] = molecular target: transmembrane (tm) human TNF alpha, A1-12 variant, on CHO cells (human) (UniProt P01375); experiment: flow cytometry on tmTNF alpha-expressing CHO cells
[2] = molecular target: transmembrane (tm) human TNF alpha, A1-12 variant, on CHO cells (human) (UniProt P01375); experiment: flow cytometry on CHO cells expressing tmTNF alpha (refers back to Example 2)
[3] = molecular target: transmembrane (tm) human TNF alpha, A1-12 variant, on CHO cells (human) (UniProt P01375); experiment: flow cytometry on CHO cells expressing tmTNF alpha, biotinylated protein L and PE-streptavidin

Measured: binding

B1: scFv1 (scFv)
scFv: EIVMTQSPSTLSASVGDRVIITCQASQSISSYLAWYQQKPGKAPKLLIYWASTLASGVPSRFSGSGSGTEFTLTISSLQPDDFATYYCQSYYYTSNNSDGFWAFGQGTKLTVLGGGGGSGGGGSGGGGSGGGGSEVQLVESGGGLVQPGGSLRLSCKASGIDFSNSGITWVRQAPGKGLEWVGYIYPGFGIRNYANSVRGRFTISRDTSKNTVYLQMNSLRAEDTAVYYCARDPIYASSSGYADIWGQGTLVTVSS
binds: all assays above
